Some of the results follow.

Amino acid sequences for entries named in this document (tags omitted).
UniProt Q0JBA9, entry or part of it: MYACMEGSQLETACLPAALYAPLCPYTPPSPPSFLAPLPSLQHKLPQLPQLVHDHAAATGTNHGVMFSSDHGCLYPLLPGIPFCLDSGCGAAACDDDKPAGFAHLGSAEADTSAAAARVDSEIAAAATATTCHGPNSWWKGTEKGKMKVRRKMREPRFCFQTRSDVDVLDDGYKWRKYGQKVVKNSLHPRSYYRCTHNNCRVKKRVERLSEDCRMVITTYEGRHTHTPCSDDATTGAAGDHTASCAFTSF

The source of these data is publication PMC7819943, “Rice protein-binding microarrays: a tool to detect cis-acting elements near promoter regions in rice”.

This assay has as its target OsWRKY34 (Oryza sativa, UniProt Q0JBA9 1-250). Put plainly: protein-binding microarray (RPBM); PBS, 2% BSA, 51.3 ng/ul salmon testes DNA, 50 uM zinc acetate, 200 nM TF, 25 C, 1 h; high values mean tight binding. The conditions noted are these: protein: recombinant; tags: N-terminal polyhistidine and DsRed monomer fusion (pET32a); label: CyDye5-dUTP incorporated in the synthesized complementary strand; 3' TTTTT single-stranded linker to array surface; dsDNA, one strand shown. In a few lines: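 For the binding signal, per-feature fluorescence intensity was read in arbitrary units on an Axon 4000B scanner. Before scanning, a 2% BSA-blocked custom Agilent array made double-stranded with Cy5-dUTP was washed after 1 h at 25 °C with 200 nM protein and 50 µM zinc acetate. The proteins were Ni–NTA-purified transcription factors with N-terminal polyhistidine and DsRed fusions, expressed in E. coli BL21-CodonPlus.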
Take “TACATTGTGAAACGGAGGGAGTAGTAACTAAACAAGCGCTCGGAGTCACCTAGTGCAG”: the binding signal is 8520 fluorescence intensity (a.u.).
For the sequence “GTCTATTTATTCAGAAGGGCCTCAATTACAAGCTTGGCAACGGAGTCACCTAGTGCAG”, the binding signal is 8100 fluorescence intensity (a.u.).
With “TTTATCTTTCTTTGTTTGTCCCTTGCATCATTACTCATATCGGAGTCACCTAGTGCAG” the figure was 14200 fluorescence intensity (a.u.); with “CTCACTCGATTTTCTCACTCAAATTTACAGTGCATTTTCTCGGAGTCACCTAGTGCAG”, 8760 fluorescence intensity (a.u.).
With “CCACCACTGACCGATTCACCTCGCCGCCCGCCGCCCGCCCCGGAGTCACCTAGTGCAG” the figure was 8520 fluorescence intensity (a.u.); with “TTTTGCTTTGGTTGGTTTGCTCGTTTTTTTTTTCTTTTCTCGGAGTCACCTAGTGCAG”, 19600 fluorescence intensity (a.u.).
For “CACCCAAACCAAATCAAATCCGTCCATCCATTCGCCTCTACGGAGTCACCTAGTGCAG”, the binding signal was 8960 fluorescence intensity (a.u.).
“CGAACCTCGCTCGTCAGTCTCTCGATTTCTCGAACCTTCTCGGAGTCACCTAGTGCAG”: the binding signal was 9120 fluorescence intensity (a.u.).
As for “GATATTACTTTAATTACTTTTCCTTTAGTACTCTTCTTTTCGGAGTCACCTAGTGCAG”, the binding signal is 10600 fluorescence intensity (a.u.).
“CAGTGCTACTTATTCACTTCCTTTTGTTTTCTGCATCAGGCGGAGTCACCTAGTGCAG”: the binding signal is 10800 fluorescence intensity (a.u.).
Consider “CTCCTTTTGGATCCCTGTGTTTGGCCAACTCGCTTTTGTCCGGAGTCACCTAGTGCAG”, for which the binding signal was 15200 fluorescence intensity (a.u.).
Regarding “CTTTTGACCCGTCTTTGACCACGCCCCAGGCAAGCCAGCCCGGAGTCACCTAGTGCAG”, the binding signal is 10700 fluorescence intensity (a.u.).
Consider “GTCGTTGCAATTTCTCAGTAATTTTACCGATTTACTATTTCGGAGTCACCTAGTGCAG”, for which the binding signal is 9460 fluorescence intensity (a.u.).
For “GTATCTCATCAAATCGTACGCGCGCCTGCATGCATATGGCCGGAGTCACCTAGTGCAG” the value was 9560 fluorescence intensity (a.u.); for “CATCGTCATCGCAATATCAAATCCACATCCACATCTCCATCGGAGTCACCTAGTGCAG”, 8100 fluorescence intensity (a.u.).
With “AAAAAACCATCTATTTTTTTCTACCCATGTACATATATTTCGGAGTCACCTAGTGCAG” the figure was 8750 fluorescence intensity (a.u.); with “AACCTAGAAACCTCCATATACATACACCACATCACTAAACCGGAGTCACCTAGTGCAG”, 8680 fluorescence intensity (a.u.); with “AATCACACCTATAAATATCCACTCCCGTAGCTATTCAGAACGGAGTCACCTAGTGCAG”, 10600 fluorescence intensity (a.u.).
For the sequence “CTGTTTATTTTTACCATATATTCCGTTACTTGAAGATTTCCGGAGTCACCTAGTGCAG”, the binding signal is 10900 fluorescence intensity (a.u.).
With “CCCGCCCAGCCCAACCACTTCACTCCTCCCACTCCAGTACCGGAGTCACCTAGTGCAG” the figure was 8440 fluorescence intensity (a.u.); with “ACTGATGCCACCTTACCCATGTCCACGCCTTCCAGTGTTGCGGAGTCACCTAGTGCAG”, 8700 fluorescence intensity (a.u.); with “ATTGTTGGAGTGGGTGGAGTGGGGAAAACAGCTCTTGCTCCGGAGTCACCTAGTGCAG”, 9300 fluorescence intensity (a.u.).
Turning to “CACCCTTATACTCTGTGAACCCTTACATAATGTTCACGCCCGGAGTCACCTAGTGCAG”, the binding signal is 10500 fluorescence intensity (a.u.).
With “TCCCACGATTTCCTTTCCTGCTTTTCTCATCCCTTTTGTTCGGAGTCACCTAGTGCAG”, the binding signal is 16500 fluorescence intensity (a.u.).
“TCCAGACGTGCAATGCAACACAGTTCACAGCATAGAAGCGCGGAGTCACCTAGTGCAG”: the binding signal is 9080 fluorescence intensity (a.u.).
“TCCACTAACCAACCTGACCCAAGCATCCAACTCCATCGCCCGGAGTCACCTAGTGCAG”: the binding signal was 10100 fluorescence intensity (a.u.).
For “ACATCCACCTATCCTTTAGTTTCCATCTCCTTTAAATTCCCGGAGTCACCTAGTGCAG” the value was 13000 fluorescence intensity (a.u.); for “ACTAGCTGGGCCCCTTTGGGATGTCTCCTCTCTCCACTGACGGAGTCACCTAGTGCAG”, 11500 fluorescence intensity (a.u.); for “CACCTCGCCGGCGGCCGCACATGACCACCACCACCGCAGCCGGAGTCACCTAGTGCAG”, 10500 fluorescence intensity (a.u.).
With “TTGCAAGCCAAACAACTGCCTCGGCACAACCAAGATTCTACGGAGTCACCTAGTGCAG” the figure was 8170 fluorescence intensity (a.u.); with “ACATATGTACGGTGTGATTGTGGTGTTATCTACCAAGATTCGGAGTCACCTAGTGCAG”, 8530 fluorescence intensity (a.u.); with “TTTCTGTGTTCAACATTTGACCGTCCGTCTTATTTAAAAACGGAGTCACCTAGTGCAG”, 8370 fluorescence intensity (a.u.).
In the case of “CATTTTTTTTCTTAATCCATATTTGACTTGGATGTTGTTTCGGAGTCACCTAGTGCAG”, the binding signal is 8390 fluorescence intensity (a.u.).
Regarding “ACGTTTCTCCTGGCCAAGAAATGCCGCCATAAACAACTCTCGGAGTCACCTAGTGCAG”, the binding signal is 8120 fluorescence intensity (a.u.).
Regarding “TTTTCATGATCTTTGCTTCTTTTTTTAGATTGATCTGTCTCGGAGTCACCTAGTGCAG”, the binding signal was 9770 fluorescence intensity (a.u.).
As for “CTCTCTACACGGCCACCGTACCGTTCATATGCCGGTACATCGGAGTCACCTAGTGCAG”, the binding signal was 8980 fluorescence intensity (a.u.).
As to “CCGCGCCTCCGCCTCCTCCGCGTCCCCGCGCCTCTCCTTCCGGAGTCACCTAGTGCAG”, the binding signal is 8150 fluorescence intensity (a.u.).
Regarding “CTGTATCTAATTCGGTTTGTTGTTCACCGTCCATTCCATTCGGAGTCACCTAGTGCAG”, the binding signal was 9690 fluorescence intensity (a.u.).
“CGGTTCTGAATTTCTGATTTCTGCACTACTCCGTGTTCTTCGGAGTCACCTAGTGCAG”: the binding signal was 8710 fluorescence intensity (a.u.).
In the case of “ATCGCGCGTCGTCTCCACCTTTCTTGCTTGTGCCACCAAGCGGAGTCACCTAGTGCAG”, the binding signal was 8980 fluorescence intensity (a.u.).
With “TGTTCATTCCAGTTCCACTACTCTACTCTTGATTTCTCACCGGAGTCACCTAGTGCAG” the figure was 9420 fluorescence intensity (a.u.); with “ACTGCCTCCTTTTATTGAAGCTGCTATTTCTGTGAGTATTCGGAGTCACCTAGTGCAG”, 9930 fluorescence intensity (a.u.).
